Measurements reported in PubChem BioAssay AID1259405 (NCATS, 2018).
Test: 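Knock-downs that lift recombinant protein yield in hamster ovary cells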 (primary screen). System: Chinese hamster CHO-K1 ovary cells with stable secreted eGFP expression. Reagent: single siRNA against mouse genes, 0.8 pmol siRNA per well (2 µl of 400 nM stock). Timing: 3 days. Detection: 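Percent of the per-plate non-targeting control median for intracellular GFP per well by laser scanning cytometry and for cell viability by ATP luminescence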. Reading the numbers: GFP, % of control: higher = more GFP per well, higher productivity; viability (ATP), % of control: higher = more viable cells (more ATP). Rule for the call: 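Called active when intracellular GFP, relative to negative control, is at or above 120%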.
Here is an unselected part of about 50,000 deposited reagents. About 4,000 of all reagents (8%) were called active. 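Mouse siRNA library applied to hamster cells; one well for each siRNA.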 Reagents against one gene are numbered here.

Which result is listed for Tmem115 (transmembrane protein 115) #1?
GFP, % of control: 94.5; viability (ATP), % of control: 112; activity call: inactive

For Tmem115 (transmembrane protein 115) #2, what was measured?
GFP, % of control: 75.1; viability (ATP), % of control: 83.2; activity call: inactive

For Tmem115 (transmembrane protein 115) #3, what does the deposit list?
GFP, % of control: 36.2; viability (ATP), % of control: 40.2; activity call: inactive

For Ifnar2 (interferon (alpha and beta) receptor 2) #1, what does the deposit list?
GFP, % of control: 55.7; viability (ATP), % of control: 58.6; activity call: inactive

What did the screen give for Ifnar2 (interferon (alpha and beta) receptor 2) #2?
GFP, % of control: 74.7; viability (ATP), % of control: 65.4; activity call: inactive

With Ifnar2 (interferon (alpha and beta) receptor 2) #3, what does the deposit list?
GFP, % of control: 53.4; viability (ATP), % of control: 94.3; activity call: inactive

For Dmbt1 (deleted in malignant brain tumors 1) #1, how do the results read?
GFP, % of control: 69; viability (ATP), % of control: 54.6; activity call: inactive

For Dmbt1 (deleted in malignant brain tumors 1) #2, what does the deposit list?
GFP, % of control: 84.2; viability (ATP), % of control: 88.7; activity call: inactive

For Dmbt1 (deleted in malignant brain tumors 1) #3, what does the deposit list?
GFP, % of control: 116; viability (ATP), % of control: 103; activity call: inactive

Which result is listed for Or8b52 (olfactory receptor family 8 subfamily B member 52) #1?
GFP, % of control: 28.3; viability (ATP), % of control: 44.2; activity call: inactive

Which result is listed for Or8b52 (olfactory receptor family 8 subfamily B member 52) #2?
GFP, % of control: 47.8; viability (ATP), % of control: 49.3; activity call: inactive

With Or8b52 (olfactory receptor family 8 subfamily B member 52) #3, what was measured?
GFP, % of control: 111; viability (ATP), % of control: 83; activity call: inactive

With Krtap19-4 (keratin associated protein 19-4) #1, what was measured?
GFP, % of control: 48.8; viability (ATP), % of control: 62.2; activity call: inactive

What is on record for Krtap19-4 (keratin associated protein 19-4) #2?
GFP, % of control: 14.2; viability (ATP), % of control: 26.5; activity call: inactive

What did the screen give for Krtap19-4 (keratin associated protein 19-4) #3?
GFP, % of control: 63.9; viability (ATP), % of control: 47.2; activity call: inactive

With Arl4d (ADP-ribosylation factor-like 4D) #1, how do the results read?
GFP, % of control: 72.7; viability (ATP), % of control: 51.1; activity call: inactive

What is on record for Arl4d (ADP-ribosylation factor-like 4D) #2?
GFP, % of control: 44; viability (ATP), % of control: 74.1; activity call: inactive

With Arl4d (ADP-ribosylation factor-like 4D) #3, what does the deposit list?
GFP, % of control: 69; viability (ATP), % of control: 61.3; activity call: inactive

For Arl4d (ADP-ribosylation factor-like 4D) #4, what was measured?
GFP, % of control: 53.9; viability (ATP), % of control: 57; activity call: inactive

With Arl4d (ADP-ribosylation factor-like 4D) #5, what does the deposit list?
GFP, % of control: 57.1; viability (ATP), % of control: 102; activity call: inactive

How did the screen score Arl4d (ADP-ribosylation factor-like 4D) #6?
GFP, % of control: 98.6; viability (ATP), % of control: 93.2; activity call: inactive

With Gzme (granzyme E) #1, what was measured?
GFP, % of control: 180; viability (ATP), % of control: 92.6; activity call: active

For Gzme (granzyme E) #2, what does the deposit list?
GFP, % of control: 65.8; viability (ATP), % of control: 53.4; activity call: inactive

What is on record for Gzme (granzyme E) #3?
GFP, % of control: 69.7; viability (ATP), % of control: 69.6; activity call: inactive

How did the screen score Aff2 (AF4/FMR2 family, member 2) #1?
GFP, % of control: 28.8; viability (ATP), % of control: 44.9; activity call: inactive

How did the screen score Aff2 (AF4/FMR2 family, member 2) #2?
GFP, % of control: 53.2; viability (ATP), % of control: 65.1; activity call: inactive

With Aff2 (AF4/FMR2 family, member 2) #3, how do the results read?
GFP, % of control: 89.8; viability (ATP), % of control: 95; activity call: inactive

2 of these entries in another layout:
{"gene": "Dmbt1 (deleted in malignant brain tumors 1)", "siRNA no.": 3, "GFP, % of control": 116, "viability (ATP), % of control": 103, "activity call": "inactive"}
{"gene": "Or8b52 (olfactory receptor family 8 subfamily B member 52)", "siRNA no.": 1, "GFP, % of control": 28.3, "viability (ATP), % of control": 44.2, "activity call": "inactive"}
